Measurements from the supplement of paper PMC10849652.
Some of the results follow.

Sequences of proteins named here, by UniProt entry; tags and fusion partners are left off. A change or cut given only in a name is not applied to a line headed by its entry.
UniProt Q9Y6G5, whole entry, looked up: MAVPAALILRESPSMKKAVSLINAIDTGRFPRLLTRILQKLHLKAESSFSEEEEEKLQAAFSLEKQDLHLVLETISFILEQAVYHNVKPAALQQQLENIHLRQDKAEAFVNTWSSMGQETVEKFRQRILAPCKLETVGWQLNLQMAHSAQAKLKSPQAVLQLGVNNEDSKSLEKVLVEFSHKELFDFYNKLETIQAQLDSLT
UniProt Q14746: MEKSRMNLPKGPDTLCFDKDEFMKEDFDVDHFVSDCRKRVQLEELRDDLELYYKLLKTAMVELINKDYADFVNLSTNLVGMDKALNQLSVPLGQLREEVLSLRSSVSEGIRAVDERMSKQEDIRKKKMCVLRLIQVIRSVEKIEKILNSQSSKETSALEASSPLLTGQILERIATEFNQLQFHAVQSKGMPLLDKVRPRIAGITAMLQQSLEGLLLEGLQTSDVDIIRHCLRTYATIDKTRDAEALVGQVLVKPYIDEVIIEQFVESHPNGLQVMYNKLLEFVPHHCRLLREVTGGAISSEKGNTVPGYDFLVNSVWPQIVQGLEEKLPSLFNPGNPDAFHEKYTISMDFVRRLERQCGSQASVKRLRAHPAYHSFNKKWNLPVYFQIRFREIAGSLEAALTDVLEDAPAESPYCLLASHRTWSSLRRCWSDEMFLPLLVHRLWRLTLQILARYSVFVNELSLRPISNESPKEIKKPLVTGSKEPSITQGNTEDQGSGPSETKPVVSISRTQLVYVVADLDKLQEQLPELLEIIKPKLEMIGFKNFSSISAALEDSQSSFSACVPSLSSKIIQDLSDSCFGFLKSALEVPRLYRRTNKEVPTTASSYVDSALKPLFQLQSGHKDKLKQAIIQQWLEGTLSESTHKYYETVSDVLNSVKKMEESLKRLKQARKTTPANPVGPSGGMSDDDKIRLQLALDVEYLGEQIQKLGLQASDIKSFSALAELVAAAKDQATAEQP
UniProt P51911: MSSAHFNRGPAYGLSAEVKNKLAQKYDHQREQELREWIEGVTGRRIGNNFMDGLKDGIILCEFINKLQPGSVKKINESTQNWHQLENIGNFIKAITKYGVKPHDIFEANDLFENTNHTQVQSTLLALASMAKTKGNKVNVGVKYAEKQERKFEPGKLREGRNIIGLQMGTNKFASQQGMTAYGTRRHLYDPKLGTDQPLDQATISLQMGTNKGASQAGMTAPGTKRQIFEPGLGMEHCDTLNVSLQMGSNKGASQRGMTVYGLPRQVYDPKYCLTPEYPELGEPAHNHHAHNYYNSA
UniProt P57737: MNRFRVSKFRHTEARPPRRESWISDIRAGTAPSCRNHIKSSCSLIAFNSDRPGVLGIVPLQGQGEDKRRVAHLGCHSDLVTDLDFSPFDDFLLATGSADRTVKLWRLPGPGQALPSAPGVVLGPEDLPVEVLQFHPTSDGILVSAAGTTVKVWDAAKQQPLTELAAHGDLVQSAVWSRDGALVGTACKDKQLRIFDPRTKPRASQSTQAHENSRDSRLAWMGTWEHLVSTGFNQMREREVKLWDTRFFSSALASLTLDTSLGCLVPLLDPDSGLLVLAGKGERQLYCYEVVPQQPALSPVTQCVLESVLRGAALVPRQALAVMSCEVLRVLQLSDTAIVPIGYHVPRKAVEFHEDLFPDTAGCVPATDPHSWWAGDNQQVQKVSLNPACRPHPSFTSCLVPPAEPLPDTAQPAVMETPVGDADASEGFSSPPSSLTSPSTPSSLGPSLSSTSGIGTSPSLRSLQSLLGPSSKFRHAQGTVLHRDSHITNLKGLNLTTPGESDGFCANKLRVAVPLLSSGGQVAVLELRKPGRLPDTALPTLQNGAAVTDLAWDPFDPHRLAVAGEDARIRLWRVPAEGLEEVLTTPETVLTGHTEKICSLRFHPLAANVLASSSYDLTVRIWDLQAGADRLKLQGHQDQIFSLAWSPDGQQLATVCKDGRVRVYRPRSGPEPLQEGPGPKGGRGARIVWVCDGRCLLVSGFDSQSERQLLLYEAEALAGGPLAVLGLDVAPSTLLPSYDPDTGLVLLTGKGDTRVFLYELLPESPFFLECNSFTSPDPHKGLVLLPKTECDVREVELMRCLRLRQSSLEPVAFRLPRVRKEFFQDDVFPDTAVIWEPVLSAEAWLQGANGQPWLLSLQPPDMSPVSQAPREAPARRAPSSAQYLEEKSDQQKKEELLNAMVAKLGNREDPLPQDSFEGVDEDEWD
UniProt Q9P003: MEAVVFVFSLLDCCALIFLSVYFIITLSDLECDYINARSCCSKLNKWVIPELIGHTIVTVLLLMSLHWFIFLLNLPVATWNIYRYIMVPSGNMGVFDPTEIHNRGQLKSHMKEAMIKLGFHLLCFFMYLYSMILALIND
UniProt Q8N129: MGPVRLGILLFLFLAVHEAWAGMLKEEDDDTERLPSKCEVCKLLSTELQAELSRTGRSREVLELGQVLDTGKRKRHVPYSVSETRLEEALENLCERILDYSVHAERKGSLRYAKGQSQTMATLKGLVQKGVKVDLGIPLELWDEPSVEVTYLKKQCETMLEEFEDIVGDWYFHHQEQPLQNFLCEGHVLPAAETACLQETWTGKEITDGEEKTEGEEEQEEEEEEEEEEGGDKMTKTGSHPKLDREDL
UniProt P15954, whole entry, looked up: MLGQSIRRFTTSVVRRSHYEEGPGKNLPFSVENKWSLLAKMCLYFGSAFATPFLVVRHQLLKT
UniProt O75131: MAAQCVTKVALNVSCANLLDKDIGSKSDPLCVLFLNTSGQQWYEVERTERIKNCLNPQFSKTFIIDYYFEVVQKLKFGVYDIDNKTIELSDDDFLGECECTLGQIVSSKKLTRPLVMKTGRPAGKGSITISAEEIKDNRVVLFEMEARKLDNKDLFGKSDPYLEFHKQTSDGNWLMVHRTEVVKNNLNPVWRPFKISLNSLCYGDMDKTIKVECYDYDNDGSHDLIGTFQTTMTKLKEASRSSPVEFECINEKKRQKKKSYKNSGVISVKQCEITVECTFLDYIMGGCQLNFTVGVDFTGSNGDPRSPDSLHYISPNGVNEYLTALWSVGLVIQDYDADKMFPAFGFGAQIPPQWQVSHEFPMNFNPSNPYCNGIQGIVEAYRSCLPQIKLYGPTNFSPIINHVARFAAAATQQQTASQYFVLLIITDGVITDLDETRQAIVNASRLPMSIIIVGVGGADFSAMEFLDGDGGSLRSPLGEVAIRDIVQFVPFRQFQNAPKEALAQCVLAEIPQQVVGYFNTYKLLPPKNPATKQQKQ
UniProt P35606: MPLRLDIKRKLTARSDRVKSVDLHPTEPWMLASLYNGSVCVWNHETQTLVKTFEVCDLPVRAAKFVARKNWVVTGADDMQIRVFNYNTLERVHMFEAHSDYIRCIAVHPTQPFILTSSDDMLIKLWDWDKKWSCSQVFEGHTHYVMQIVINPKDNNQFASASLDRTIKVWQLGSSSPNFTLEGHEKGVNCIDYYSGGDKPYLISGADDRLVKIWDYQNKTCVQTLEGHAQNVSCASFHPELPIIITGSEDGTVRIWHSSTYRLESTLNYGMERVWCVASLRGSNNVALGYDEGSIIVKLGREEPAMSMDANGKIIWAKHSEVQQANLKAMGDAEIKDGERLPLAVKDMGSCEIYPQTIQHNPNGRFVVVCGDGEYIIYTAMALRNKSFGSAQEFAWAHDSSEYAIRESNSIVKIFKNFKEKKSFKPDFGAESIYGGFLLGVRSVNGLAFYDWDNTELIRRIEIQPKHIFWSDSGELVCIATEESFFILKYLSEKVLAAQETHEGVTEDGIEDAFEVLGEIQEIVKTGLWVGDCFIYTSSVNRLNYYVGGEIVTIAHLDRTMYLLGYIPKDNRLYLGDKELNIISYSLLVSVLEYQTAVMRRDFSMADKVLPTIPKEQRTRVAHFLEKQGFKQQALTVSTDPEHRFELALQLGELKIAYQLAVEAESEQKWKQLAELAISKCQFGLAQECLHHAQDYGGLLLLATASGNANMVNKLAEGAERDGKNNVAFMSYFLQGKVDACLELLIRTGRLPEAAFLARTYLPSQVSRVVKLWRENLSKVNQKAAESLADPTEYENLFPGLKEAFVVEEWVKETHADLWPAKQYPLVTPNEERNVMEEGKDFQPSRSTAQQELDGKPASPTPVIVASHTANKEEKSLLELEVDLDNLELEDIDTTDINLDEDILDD
UniProt Q8IWV2: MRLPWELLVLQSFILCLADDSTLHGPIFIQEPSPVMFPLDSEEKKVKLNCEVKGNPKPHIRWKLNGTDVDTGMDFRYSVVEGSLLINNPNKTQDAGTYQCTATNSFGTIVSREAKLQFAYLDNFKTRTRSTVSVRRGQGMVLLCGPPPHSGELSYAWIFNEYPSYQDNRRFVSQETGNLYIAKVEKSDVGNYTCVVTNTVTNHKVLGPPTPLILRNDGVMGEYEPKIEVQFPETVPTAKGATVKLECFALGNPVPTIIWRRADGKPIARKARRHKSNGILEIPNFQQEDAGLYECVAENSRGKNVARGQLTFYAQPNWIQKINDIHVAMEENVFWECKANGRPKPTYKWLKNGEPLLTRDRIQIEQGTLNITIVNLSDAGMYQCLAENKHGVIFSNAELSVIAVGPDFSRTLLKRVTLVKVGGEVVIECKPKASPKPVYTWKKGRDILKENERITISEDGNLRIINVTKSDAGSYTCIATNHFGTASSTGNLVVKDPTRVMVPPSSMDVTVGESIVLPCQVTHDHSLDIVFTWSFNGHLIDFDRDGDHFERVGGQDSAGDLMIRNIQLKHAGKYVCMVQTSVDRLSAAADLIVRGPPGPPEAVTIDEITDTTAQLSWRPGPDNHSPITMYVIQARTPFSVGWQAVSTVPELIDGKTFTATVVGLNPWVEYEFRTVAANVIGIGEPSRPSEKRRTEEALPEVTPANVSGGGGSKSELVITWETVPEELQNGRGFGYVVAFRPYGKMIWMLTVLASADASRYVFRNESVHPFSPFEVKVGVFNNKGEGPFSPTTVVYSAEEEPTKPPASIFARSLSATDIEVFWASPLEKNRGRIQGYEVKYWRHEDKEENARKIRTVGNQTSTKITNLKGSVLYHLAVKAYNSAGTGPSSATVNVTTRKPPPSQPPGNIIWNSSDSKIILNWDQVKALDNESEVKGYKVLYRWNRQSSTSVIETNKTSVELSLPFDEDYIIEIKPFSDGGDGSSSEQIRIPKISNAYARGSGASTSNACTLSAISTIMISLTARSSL
UniProt Q96JB2: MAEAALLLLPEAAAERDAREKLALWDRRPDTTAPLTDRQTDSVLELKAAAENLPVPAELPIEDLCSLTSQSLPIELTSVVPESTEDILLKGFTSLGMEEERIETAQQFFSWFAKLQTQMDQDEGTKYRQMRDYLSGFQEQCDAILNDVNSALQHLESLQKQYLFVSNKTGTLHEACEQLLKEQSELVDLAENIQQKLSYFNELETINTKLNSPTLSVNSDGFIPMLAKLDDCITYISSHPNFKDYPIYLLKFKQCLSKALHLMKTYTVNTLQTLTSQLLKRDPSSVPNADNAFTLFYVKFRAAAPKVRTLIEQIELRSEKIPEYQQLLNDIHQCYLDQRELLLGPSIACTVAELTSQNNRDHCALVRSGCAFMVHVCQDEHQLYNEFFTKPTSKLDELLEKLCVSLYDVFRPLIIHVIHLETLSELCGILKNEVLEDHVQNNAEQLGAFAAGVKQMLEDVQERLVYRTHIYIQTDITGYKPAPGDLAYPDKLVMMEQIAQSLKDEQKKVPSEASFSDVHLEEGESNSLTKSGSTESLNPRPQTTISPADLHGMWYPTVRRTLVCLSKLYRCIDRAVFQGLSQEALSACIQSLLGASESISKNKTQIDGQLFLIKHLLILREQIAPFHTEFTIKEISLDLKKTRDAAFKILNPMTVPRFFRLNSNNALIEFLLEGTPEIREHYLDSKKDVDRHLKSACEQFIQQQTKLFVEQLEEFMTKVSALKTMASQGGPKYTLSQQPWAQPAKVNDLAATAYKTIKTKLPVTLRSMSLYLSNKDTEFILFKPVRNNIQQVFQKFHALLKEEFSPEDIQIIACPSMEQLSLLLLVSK
UniProt P38432, whole entry, looked up: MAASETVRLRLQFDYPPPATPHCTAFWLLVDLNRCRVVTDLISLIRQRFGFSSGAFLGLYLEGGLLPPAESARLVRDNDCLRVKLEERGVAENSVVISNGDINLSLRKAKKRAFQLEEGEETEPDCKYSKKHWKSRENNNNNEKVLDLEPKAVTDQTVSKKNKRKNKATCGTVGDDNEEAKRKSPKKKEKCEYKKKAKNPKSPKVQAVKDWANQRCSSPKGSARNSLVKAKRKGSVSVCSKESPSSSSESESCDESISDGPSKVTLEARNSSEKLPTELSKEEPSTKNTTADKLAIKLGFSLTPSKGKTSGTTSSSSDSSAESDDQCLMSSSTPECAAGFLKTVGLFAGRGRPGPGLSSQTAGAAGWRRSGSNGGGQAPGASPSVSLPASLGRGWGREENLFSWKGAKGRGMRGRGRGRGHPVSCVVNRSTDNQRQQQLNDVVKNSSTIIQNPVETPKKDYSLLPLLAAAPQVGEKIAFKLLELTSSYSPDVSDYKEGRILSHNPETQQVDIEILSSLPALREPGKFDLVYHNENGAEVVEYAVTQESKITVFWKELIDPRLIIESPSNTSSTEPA
UniProt Q86WW8: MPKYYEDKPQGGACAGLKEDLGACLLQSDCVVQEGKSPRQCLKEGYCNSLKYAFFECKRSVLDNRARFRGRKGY

Tests used:
Assay in all cases: log2 fold change, soluble protein after heating vs DMSO (PISA); higher = thermal stabilisation; K562 lysate, 10 uM; active = over 0.2 and 3.5 SD of the protein, either way, in both replicates (recomputed)
erlotinib = compound: C#Cc1cccc(Nc2ncnc3cc(OCCOC)c(OCCOC)cc23)c1 [erlotinib]
In short: (§1)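 Thermal stability, expressed as log-two fold change relative to solvent controls, is given from duplicates. Crude K562 extract in PBS pH 7.4 with 1 mM MgCl2, at 1 mg/mL protein, was treated with 10 μM compound for 30 min and heated in aliquots for 3 min across 48°C-58°C. After pooling, adjustment to 0.5% NP-40 at 4°C and centrifugation at 21,000xg for 90 min, supernatant protein was measured by TMTpro 16plex LC-MS/MS with channel sums equalised.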

[1] = compound: C/C(=N\NC(=O)C1=CC(=CC=C1)S(=O)(=O)N2CCOCC2)/C3=C(C=CC(=C3)Cl)O
In short: as §1

[2] = compound: C1=CC(=CC=C1C2=NC3=C(N2)C=C(C=C3)C(=O)N)OC4=CC=C(C=C4)Cl
In short: as §1

[3] = compound: C1=CC2=C(C=CC(=C2)/C=C\3/C(=O)NC(=NCC4=CC=CS4)S3)N=C1
In short: as §1

[4] = compound: C1=CC2=NC=CN=C2C=C1/C=C/3\C(=O)NC(=O)S3
In short: as §1

[5] = compound: C1=CC=C(C=C1)C2=NC(=C(N2)C3=CC=NC=C3)C4=CC(=C(C=C4)Cl)O
In short: as §1

[6] = compound: C1=CC=C2C(=C1)C3=NNC4=CC=CC(=C43)C2=O
In short: as §1

[7] = compound: C1CCN(C1)C(=O)NC2=CC=CC(=C2)NC3=NC=C(C(=N3)NCCC4=CN=CN4)Br
In short: as §1

[8] = compound: C1CN(CCC1(CC2=CC=C(C=C2)Cl)N)C3=NC=NC4=C3C=CN4
In short: as §1

IRAK-1-4 Inhibitor I = compound: C1COCCN1CCN2C3=CC=CC=C3N=C2NC(=O)C4=CC(=CC=C4)[N+](=O)[O-] [IRAK-1-4 Inhibitor I]
In short: as §1

Measured: log2 fold change

COG7 (UniProt P83436)
inactive: erlotinib 0.026 | [1] -0.007 | [2] -0.025 | [3] 0.034 | [4] 0.012 | [5] 0.006 | [6] -0.037 | [7] -0.022 | [8] 0.05 | IRAK-1-4 Inhibitor I -0.039

CNP (UniProt P09543)
inactive: erlotinib -0.005 | [1] -0.066 | [2] 0.002 | [3] -0.012 | [4] -0.022 | [5] 0.007 | [6] -0.004 | [7] -0.016 | [8] 0 | IRAK-1-4 Inhibitor I -0.002

COA7 (UniProt Q96BR5)
inactive: erlotinib -0.013 | [1] 0.029 | [2] -0.034 | [3] -0.015 | [4] -0.006 | [5] 0.05 | [6] 0.019 | [7] 0.025 | [8] -0.041 | IRAK-1-4 Inhibitor I -0.021

COMMD10 (UniProt Q9Y6G5)
inactive: erlotinib 0.026 | [1] -0.018 | [2] 0.008 | [3] 0.009 | [4] -0.012 | [5] -0.032 | [6] -0.025 | [7] 0.037 | [8] -0.01 | IRAK-1-4 Inhibitor I -0.036

COG2 (UniProt Q14746)
inactive: erlotinib 0.009 | [1] 0.036 | [2] -0.021 | [3] -0.022 | [4] -0.032 | [5] -0.017 | [6] -0.001 | [7] 0.011 | [8] 0.031 | IRAK-1-4 Inhibitor I 0.03

CNN1 (UniProt P51911)
inactive: erlotinib 0.018 | [1] -0.011 | [2] 0.063 | [3] 0.126 | [4] -0.047 | [5] 0.009 | [6] -0.05 | [7] -0.079 | [8] -0.031 | IRAK-1-4 Inhibitor I -0.064

COA4 isoform 2 (UniProt Q9NYJ1)
inactive: erlotinib 0.105 | [1] 0.041 | [2] -0.038 | [3] 0.089 | [4] -0.048 | [5] 0.019 | [6] 0.035 | [7] -0.079 | [8] 0.047 | IRAK-1-4 Inhibitor I -0.035

CORO7 isoform 3 (UniProt P57737)
inactive: erlotinib 0.035 | [1] -0.009 | [2] -0.079 | [3] 0.013 | [4] 0 | [5] 0.016 | [6] -0.016 | [7] 0.009 | [8] 0.026 | IRAK-1-4 Inhibitor I -0.04

CNNM3 (UniProt Q8NE01)
inactive: erlotinib -0.001 | [1] 0.054 | [2] -0.012 | [3] -0.002 | [4] -0.002 | [5] -0.04 | [6] 0.009 | [7] -0.044 | [8] 0.041 | IRAK-1-4 Inhibitor I -0.001

CNIH4 (UniProt Q9P003)
inactive: erlotinib 0.049 | [1] -0.139 | [2] -0.06 | [3] 0.129 | [4] -0.071 | [5] -0.022 | [6] -0.162 | [7] 0.01 | [8] -0.131 | IRAK-1-4 Inhibitor I -0.078

CNOT4 isoform 6 (UniProt O95628)
inactive: erlotinib -0.025 | [1] -0.016 | [2] 0.005 | [3] 0.017 | [4] 0.009 | [5] -0.035 | [6] 0.043 | [7] -0.032 | [8] -0.013 | IRAK-1-4 Inhibitor I 0.041

COG1 (UniProt Q8WTW3)
inactive: erlotinib 0.02 | [1] -0.244 | [2] -0.017 | [3] 0.083 | [4] -0.003 | [5] 0.014 | [6] 0 | [7] -0.029 | [8] 0.033 | IRAK-1-4 Inhibitor I 0.015

CPQ (UniProt Q9Y646)
inactive: erlotinib -0.048 | [1] -0.29 | [2] -0.006 | [3] 0.011 | [4] 0.018 | [5] 0.017 | [6] 0.053 | [7] 0.014 | [8] -0.015 | IRAK-1-4 Inhibitor I 0.026

CNPY4 (UniProt Q8N129)
inactive: erlotinib 0.047 | [1] -0.068 | [2] -0.015 | [3] 0.049 | [4] 0.016 | [5] -0.085 | [6] -0.034 | [7] 0.045 | [8] -0.03 | IRAK-1-4 Inhibitor I -0.012

COG6 (UniProt Q9Y2V7)
inactive: erlotinib -0.059 | [1] 0.153 | [2] -0.074 | [3] -0.07 | [4] -0.008 | [5] 0.015 | [6] 0.024 | [7] 0.008 | [8] 0.077 | IRAK-1-4 Inhibitor I 0.006

COX11 (UniProt Q9Y6N1)
inactive: erlotinib 0.026 | [1] -0.129 | [2] 0.021 | [3] 0.029 | [4] -0.013 | [5] 0.026 | [6] -0.068 | [7] 0.037 | [8] 0.031 | IRAK-1-4 Inhibitor I -0.024

COL18A1 (UniProt P39060)
inactive: erlotinib -0.053 | [1] -0.192 | [2] 0.008 | [3] 0.069 | [4] 0.01 | [5] 0.042 | [6] -0.026 | [7] -0.049 | [8] 0.04 | IRAK-1-4 Inhibitor I -0.013

COPS7A (UniProt Q9UBW8)
inactive: erlotinib -0.058 | [1] -0.003 | [2] -0.004 | [3] -0.042 | [4] -0.041 | [5] -0.014 | [6] -0.028 | [7] -0.003 | [8] -0.054 | IRAK-1-4 Inhibitor I -0.003

CNOT6 (UniProt Q9ULM6)
inactive: erlotinib -0.002 | [1] 0.076 | [2] 0.029 | [3] -0.067 | [4] 0.026 | [5] -0.011 | [6] 0.005 | [7] -0.034 | [8] 0 | IRAK-1-4 Inhibitor I 0.004

COX7C (UniProt P15954)
inactive: erlotinib -0.055 | [1] -0.004 | [2] -0.064 | [3] 0.003 | [4] 0.046 | [5] 0.038 | [6] 0.027 | [7] -0.177 | [8] 0.153 | IRAK-1-4 Inhibitor I -0.015

CRACR2A isoform 2 (UniProt Q9BSW2)
inactive: erlotinib -0.075 | [1] 0.08 | [2] 0.04 | [3] 0.035 | [4] 0.001 | [5] -0.056 | [6] -0.208 | [7] -0.075 | [8] 0.041 | IRAK-1-4 Inhibitor I -0.011

CPNE3 (UniProt O75131)
inactive: erlotinib 0.014 | [1] -0.106 | [2] -0.005 | [3] 0.02 | [4] -0.07 | [5] 0.004 | [6] -0.079 | [7] 0.006 | [8] -0.024 | IRAK-1-4 Inhibitor I -0.011

COPB2 (UniProt P35606)
inactive: erlotinib -0.012 | [1] 0.017 | [2] 0.003 | [3] 0.019 | [4] 0.008 | [5] -0.006 | [6] -0.004 | [7] -0.006 | [8] -0.004 | IRAK-1-4 Inhibitor I 0.001

Fetched one by one from above (two):
CRACR2A isoform 2 (UniProt Q9BSW2)
inactive: erlotinib -0.075 | [1] 0.08 | [2] 0.04 | [3] 0.035 | [4] 0.001 | [5] -0.056 | [6] -0.208 | [7] -0.075 | [8] 0.041 | IRAK-1-4 Inhibitor I -0.011

CNOT6 (UniProt Q9ULM6)
inactive: erlotinib -0.002 | [1] 0.076 | [2] 0.029 | [3] -0.067 | [4] 0.026 | [5] -0.011 | [6] 0.005 | [7] -0.034 | [8] 0 | IRAK-1-4 Inhibitor I 0.004

Carrying on:

CNTN4 (UniProt Q8IWV2)
inactive: erlotinib 0.053 | [1] 0.063 | [2] 0.138 | [3] -0.03 | [4] 0.053 | [5] 0.046 | [6] -0.203 | [7] -0.124 | [8] 0.138 | IRAK-1-4 Inhibitor I 0.119

CORO1C isoform 3 (UniProt Q9ULV4)
inactive: erlotinib 0.015 | [1] -0.062 | [2] 0.054 | [3] -0.01 | [4] -0.023 | [5] -0.007 | [6] -0.005 | [7] -0.027 | [8] -0.004 | IRAK-1-4 Inhibitor I -0.008

COG3 (UniProt Q96JB2)
inactive: erlotinib 0.045 | [1] 0.053 | [2] -0.037 | [3] -0.049 | [4] -0.008 | [5] -0.022 | [6] -0.056 | [7] -0.02 | [8] -0.01 | IRAK-1-4 Inhibitor I 0.012

COIL (UniProt P38432)
inactive: erlotinib 0.007 | [1] 0.003 | [2] 0.029 | [3] -0.037 | [4] 0.053 | [5] 0.02 | [6] 0.047 | [7] -0.03 | [8] 0.116 | IRAK-1-4 Inhibitor I 0.003

COPB1 (UniProt P53618)
inactive: erlotinib -0.004 | [1] -0.026 | [2] -0.003 | [3] -0.009 | [4] 0.009 | [5] -0.016 | [6] 0 | [7] -0.046 | [8] -0.003 | IRAK-1-4 Inhibitor I -0.002

COA5 (UniProt Q86WW8)
inactive: erlotinib -0.063 | [1] 0.014 | [2] 0.057 | [3] -0.055 | [4] 0.07 | [5] -0.081 | [6] 0.153 | [7] -0.015 | [8] -0.041 | IRAK-1-4 Inhibitor I 0.137
